These are yes or no findings as the source states them, for the method shown. In cells and extracts the contact can be indirect. Here binding means that the protein was enriched with, or labelled near, the bait; the list need not be complete. Where a sequence is shown, tags or fusion partners need not be part of it.
T1: Flag-tagged QKI (Quaking) (UniProt Q9QYS9)
T1 sequence: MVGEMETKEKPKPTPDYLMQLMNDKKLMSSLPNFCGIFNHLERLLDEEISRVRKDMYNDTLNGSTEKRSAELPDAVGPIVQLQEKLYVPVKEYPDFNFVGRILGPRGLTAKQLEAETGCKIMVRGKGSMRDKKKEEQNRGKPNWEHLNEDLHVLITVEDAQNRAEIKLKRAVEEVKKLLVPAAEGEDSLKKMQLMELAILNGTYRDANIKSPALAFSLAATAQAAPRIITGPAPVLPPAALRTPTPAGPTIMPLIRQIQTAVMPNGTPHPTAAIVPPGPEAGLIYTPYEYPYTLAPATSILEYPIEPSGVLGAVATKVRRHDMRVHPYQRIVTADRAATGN


The binders below were run against T1, Flag-tagged QKI (Quaking) (assay: affinity purification with mass spectrometry; RAW264.7 cells transfected with Flag-QKI or control vector for 36 h, with or without bacterial infection for 4 h; QKI-IP complex analysed by iTRAQ LC-MS/MS).

binding | Binder
binds | EDC3, endogenous (protein, UniProt Q8K2D3 1-508) MAMDWLGSIVSINCGDSLGVYQGRVSAVDQVSQTISLTRPFHNGVKCLVPEVTFRAGDITELKILEIPGPGDNQQVGDLHQTELGPSGVGYQMSISQNGTGKVVKKPASSSSAPQSIPKRTDVKSQDVAISPQQQQCSKSYVDRHMESLSQSKSFRRRHNSWSSSSRHPNQATPKKSGLKNGQMKNKDDECFGDDIEELPDTDFDFEGNLALFDKAAVFEEIDTYERRSGSRSRGVPNERPARYRHDENILESEPIVYRRITVPHSVSKEFCTDSGLVVPSVSYELHKKLLSVAEKHGLTLERRLEMTGVCASQMALTLLGGPNRLNPKNVHQRPTVALLCGPHVKGAQGISCGRHLANHDVQVILFLPNFVKMLESITNELSLFSKTQGQQVSSLRDLPASPVDLVINCLDCPENAFLRDQPWYKAAVAWANQNRAPVLSIDPPVHEVEQGIDAKWSLALGLPLPLGEHAGRVYLCDIGIPQQVFQEVGINYHSPFGCKFVIPLHSA
binds | Msl2, endogenous (enzyme, UniProt Q69ZF8 1-577) MNPVNATALYISASRLVLNYDPGDPKAFTEINRLLPYFRQSLSCCVCGHLLQDPIAPTNSTCQHYVCKTCKGKKMMMKPSCSWCKDYEQFEENKQLSILVNCYKKLCEYITQTTLARDIIEAVDCSSDILALLNDGSLFCEETEKPSDSSFTLCLTHSPLPSTSEPTADPQASLSPMSESTLSIAIGSSVINGLPTYNGLSIDRFGINIPSPEHPNTIDVCNTVDIKTEDLSDNLPPVCDTVATDLCSTGIDICSFSEDIKPGDSLLLSVEEVLRSLETVSNTEVCCPNLQPNLEATVSNGPFLQLSSQSLSHNVFMSTSPALHGLSCTAATPKVAKLNRKRSRSESDSEKVQPLPISTIIRGPTLGASAPVTVKRESKISLQPIATVPNGGTTPKISKTVLLSTKSMKKSHEHGSKKSHSKSKPGILKKDKAVKEKMPSHHFMPGSPTKTVYKKPQEKKGCKCGRATQNPSVLTCRGQRCPCYSNRKACLDCICRGCQNSYMANGEKKLEAFAVPEKALEQTRLTLGINVTSIAVRNASTSTSVINVTGSPVTTFLAASTHDDKSLDEAIDMRFDC
binds | Ring finger protein 6 (RNF6), endogenous (enzyme, UniProt Q9DBU5 1-667) MDPSRSRSGGSGEESSFQENERRWQQERLHREEAYYQFINELSDEDYRLMRDHNLLGTPGEITSEELQQRLERAKEQLASQPGSDSAASDGDSESLRAHSDEDSLLRWLNTFRRTGNVTRSGQNGNQSWRAVSRTNPNSGEFGFSLEIHINPDNRGSEMHGEDSTDIPLSGVNREHRQQRPSSPVARRTRSQTSMSSSGPRGRRGARRQGSVQGSFATLGRLRNGIGVALGVPRVSAPRTNVINSHTNQSDGSTLRQGGRQRFGAAHIWENGARSNVTVRNTNQRLEPIRLRPAFSSRSRSPIQRQNGTVHHNSQRQGRPVQQTGRNRSVRHRGVTRVFLEQGREHRGTDYTPLSNSRLVSRITVEEGESSRSSAATQRHPAITLDLQVRRIRPGETRDRDSIANRTRSRAGLAESTVESTSGGFHRTISHLERSGVRTYVSTITVPLRRISENDVVEPSSVALRSILRQIMTGFGELSSLMEVEPASENQSNGQRLPEVYLELSNGDAADDSGQHGRASSQASQAQDGAEMLAVREPAPPQARPSGSRSRRQLGRADSVVEAGTLPILRLAHFFLLNEGDDDPIRGLTKEQIDNLSTRSYEQDGVDSELGKVCSVCISDYVAGNKLRQLPCLHEFHIHCIDRWLSENCTCPVCRRPVLEFGATSSG
